Source: patent publication US5705606A, “Peptides derived from GPIIIa” (COR Therapeutics, Inc., priority 1993, dated 1998)
Part of at least one peptide drawing is inferred or uncertain, most often the ends. Ends that are not written are not given here.

Target: T1, GPIIb-IIIa (Homo sapiens, UniProt P05106+P08514)
T1 sequence (P08514 32-887 limits assumed): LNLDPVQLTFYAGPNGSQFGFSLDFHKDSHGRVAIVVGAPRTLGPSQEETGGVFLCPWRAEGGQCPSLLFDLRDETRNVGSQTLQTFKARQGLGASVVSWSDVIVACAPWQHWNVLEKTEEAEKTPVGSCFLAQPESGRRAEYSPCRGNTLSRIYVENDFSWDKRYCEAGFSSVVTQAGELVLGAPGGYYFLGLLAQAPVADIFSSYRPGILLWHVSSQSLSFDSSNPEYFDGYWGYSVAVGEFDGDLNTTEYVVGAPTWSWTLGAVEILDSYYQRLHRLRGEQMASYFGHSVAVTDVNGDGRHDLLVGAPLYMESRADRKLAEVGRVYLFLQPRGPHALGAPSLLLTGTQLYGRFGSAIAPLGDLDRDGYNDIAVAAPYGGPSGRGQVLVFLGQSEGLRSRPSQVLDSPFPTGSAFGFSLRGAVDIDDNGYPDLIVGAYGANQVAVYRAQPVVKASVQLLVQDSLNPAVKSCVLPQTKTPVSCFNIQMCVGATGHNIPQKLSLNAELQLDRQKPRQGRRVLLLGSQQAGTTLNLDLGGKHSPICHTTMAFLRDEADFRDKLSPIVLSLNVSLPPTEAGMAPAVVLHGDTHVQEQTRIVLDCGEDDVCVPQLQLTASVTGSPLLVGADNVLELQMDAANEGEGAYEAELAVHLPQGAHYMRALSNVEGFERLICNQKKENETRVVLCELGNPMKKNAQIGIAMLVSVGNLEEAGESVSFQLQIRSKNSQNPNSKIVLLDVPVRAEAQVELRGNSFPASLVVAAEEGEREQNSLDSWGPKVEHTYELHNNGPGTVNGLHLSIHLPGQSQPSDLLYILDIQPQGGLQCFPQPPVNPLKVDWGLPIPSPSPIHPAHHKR
T1 sequence (P05106 27-788): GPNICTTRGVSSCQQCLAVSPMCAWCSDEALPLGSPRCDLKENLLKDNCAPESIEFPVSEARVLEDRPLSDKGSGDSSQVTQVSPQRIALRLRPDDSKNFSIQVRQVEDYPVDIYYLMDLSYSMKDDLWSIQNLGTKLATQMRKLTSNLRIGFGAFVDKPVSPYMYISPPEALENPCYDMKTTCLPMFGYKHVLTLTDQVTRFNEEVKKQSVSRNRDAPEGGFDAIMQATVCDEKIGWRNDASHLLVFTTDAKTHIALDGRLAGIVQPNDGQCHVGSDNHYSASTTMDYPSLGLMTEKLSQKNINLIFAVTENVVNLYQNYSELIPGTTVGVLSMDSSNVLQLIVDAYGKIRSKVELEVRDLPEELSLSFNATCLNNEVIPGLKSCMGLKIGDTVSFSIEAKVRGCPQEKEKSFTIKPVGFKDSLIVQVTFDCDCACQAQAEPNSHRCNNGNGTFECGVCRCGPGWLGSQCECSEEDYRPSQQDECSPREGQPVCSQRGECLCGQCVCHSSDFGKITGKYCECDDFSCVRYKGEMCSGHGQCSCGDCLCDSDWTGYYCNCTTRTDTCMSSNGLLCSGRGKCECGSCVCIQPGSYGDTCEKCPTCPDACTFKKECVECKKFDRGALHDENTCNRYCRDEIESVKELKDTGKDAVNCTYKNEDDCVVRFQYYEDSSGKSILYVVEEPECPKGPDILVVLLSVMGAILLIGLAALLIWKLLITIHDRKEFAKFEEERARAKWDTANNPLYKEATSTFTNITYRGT
Experiment: Plate assay: binding of biotinylated fibrinogen to purified GPIIb-IIIa
Details: 96-well plates coated with purified GPIIb-IIIa, 3 hours at 30° C., OD 405 nm

Row | Sequence | inhibition of fibrinogen binding to GPIIb-IIIa
1 | NEEVKKQSVSRNRDAPEGGFDAIMQA [peptide 203-227, NEEVKKQSVSRNRDAPEGGFDAIMQA] | blocking
2 | SVSRNRDAPEGG [XXIII-XXIV, S V S R N R D A P E G G] | inhibit
